Results reported in article PMC12533644.
The exact form of at least one protein or probe is not confirmed. For part of these data: A weaker result is weaker than the reference pair of the same experiment. For part of these data: Protein sequences can lack the tags named with them. For part of these data: Where cells or extracts were used, other partners may take part.

Experiments:
FUBP1-strep = biological target: T1, FUBP1-strep (UniProt Q96AE4); test: EMSA; conditions: EMSA: 10 mM Tris pH 7.5, 140 mM KCl, 10 mM NaCl, 1 mM MgCl2, 10% glycerol, 1 mM DTT, RNase inhibitor 1 U/ul, room temperature 30 min, recombinant protein, protein details: C-terminal Strep-tag, label: 5' FAM
T1 sequence (looked up, limits assumed): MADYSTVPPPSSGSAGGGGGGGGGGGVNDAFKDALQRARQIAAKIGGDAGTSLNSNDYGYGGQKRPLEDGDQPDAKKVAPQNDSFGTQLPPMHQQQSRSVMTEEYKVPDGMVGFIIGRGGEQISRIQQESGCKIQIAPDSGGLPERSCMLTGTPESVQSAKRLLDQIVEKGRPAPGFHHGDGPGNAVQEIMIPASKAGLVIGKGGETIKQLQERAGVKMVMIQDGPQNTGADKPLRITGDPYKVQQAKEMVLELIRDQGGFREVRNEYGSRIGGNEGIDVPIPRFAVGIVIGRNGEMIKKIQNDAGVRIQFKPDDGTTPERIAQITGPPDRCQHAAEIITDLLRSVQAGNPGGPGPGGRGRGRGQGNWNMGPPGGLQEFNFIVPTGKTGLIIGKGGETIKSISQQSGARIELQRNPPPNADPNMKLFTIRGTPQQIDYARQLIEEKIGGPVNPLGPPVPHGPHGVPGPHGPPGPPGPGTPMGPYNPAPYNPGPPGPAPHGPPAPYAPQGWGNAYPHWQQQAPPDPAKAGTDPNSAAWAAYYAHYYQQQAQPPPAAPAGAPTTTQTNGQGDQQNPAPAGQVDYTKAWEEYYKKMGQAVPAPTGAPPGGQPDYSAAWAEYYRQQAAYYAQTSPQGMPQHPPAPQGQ

FMRP = FMRP (UniProt Q06787); test: pull-down, immunoblot; conditions: Pull-down: HepG2 lysate (50 mM Tris pH 7.5, 100 mM NaCl, 1% NP-40, 0.5% deoxycholate) + tRNA 50 ug/ml, RT 30 min then 4 C 90 min, washes 10 mM Tris pH 7.5, 150 mM KCl, protein in an extract
FUBP3 = biological target: T2, FUBP3 (UniProt Q96I24); test: pull-down, immunoblot; conditions: Pull-down: HepG2 lysate (50 mM Tris pH 7.5, 100 mM NaCl, 1% NP-40, 0.5% deoxycholate) + tRNA 50 ug/ml, RT 30 min then 4 C 90 min, washes 10 mM Tris pH 7.5, 150 mM KCl, protein in an extract
T2 sequence (looked up, limits assumed): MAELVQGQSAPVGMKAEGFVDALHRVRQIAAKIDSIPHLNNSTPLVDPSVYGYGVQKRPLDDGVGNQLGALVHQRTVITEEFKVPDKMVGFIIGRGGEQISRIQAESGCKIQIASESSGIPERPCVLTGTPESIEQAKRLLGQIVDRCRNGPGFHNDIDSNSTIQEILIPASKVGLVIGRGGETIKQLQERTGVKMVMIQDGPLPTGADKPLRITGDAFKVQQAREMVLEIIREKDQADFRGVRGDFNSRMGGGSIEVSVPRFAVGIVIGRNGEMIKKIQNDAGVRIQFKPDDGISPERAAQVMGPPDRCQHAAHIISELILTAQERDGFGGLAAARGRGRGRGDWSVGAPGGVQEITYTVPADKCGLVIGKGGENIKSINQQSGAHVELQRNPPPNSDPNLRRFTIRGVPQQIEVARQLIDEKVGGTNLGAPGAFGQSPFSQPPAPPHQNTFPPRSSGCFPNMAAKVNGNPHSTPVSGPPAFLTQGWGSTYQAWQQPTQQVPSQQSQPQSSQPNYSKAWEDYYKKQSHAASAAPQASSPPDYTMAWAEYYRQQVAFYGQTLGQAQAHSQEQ

IGF2BP1 = IGF2BP1 (UniProt Q9NZI8); test: pull-down, immunoblot; conditions: Pull-down: HepG2 lysate (50 mM Tris pH 7.5, 100 mM NaCl, 1% NP-40, 0.5% deoxycholate) + tRNA 50 ug/ml, RT 30 min then 4 C 90 min, washes 10 mM Tris pH 7.5, 150 mM KCl, protein in an extract
IGF2BP3 = IGF2BP3 (UniProt O00425); test: pull-down, immunoblot; conditions: Pull-down: HepG2 lysate (50 mM Tris pH 7.5, 100 mM NaCl, 1% NP-40, 0.5% deoxycholate) + tRNA 50 ug/ml, RT 30 min then 4 C 90 min, washes 10 mM Tris pH 7.5, 150 mM KCl, protein in an extract
NCOA5 = biological target: T3, NCOA5 (UniProt Q9HCD5); test: pull-down, immunoblot; conditions: Pull-down: HepG2 lysate (50 mM Tris pH 7.5, 100 mM NaCl, 1% NP-40, 0.5% deoxycholate) + tRNA 50 ug/ml, RT 30 min then 4 C 90 min, washes 10 mM Tris pH 7.5, 150 mM KCl, protein in an extract
T3 sequence (looked up, limits assumed): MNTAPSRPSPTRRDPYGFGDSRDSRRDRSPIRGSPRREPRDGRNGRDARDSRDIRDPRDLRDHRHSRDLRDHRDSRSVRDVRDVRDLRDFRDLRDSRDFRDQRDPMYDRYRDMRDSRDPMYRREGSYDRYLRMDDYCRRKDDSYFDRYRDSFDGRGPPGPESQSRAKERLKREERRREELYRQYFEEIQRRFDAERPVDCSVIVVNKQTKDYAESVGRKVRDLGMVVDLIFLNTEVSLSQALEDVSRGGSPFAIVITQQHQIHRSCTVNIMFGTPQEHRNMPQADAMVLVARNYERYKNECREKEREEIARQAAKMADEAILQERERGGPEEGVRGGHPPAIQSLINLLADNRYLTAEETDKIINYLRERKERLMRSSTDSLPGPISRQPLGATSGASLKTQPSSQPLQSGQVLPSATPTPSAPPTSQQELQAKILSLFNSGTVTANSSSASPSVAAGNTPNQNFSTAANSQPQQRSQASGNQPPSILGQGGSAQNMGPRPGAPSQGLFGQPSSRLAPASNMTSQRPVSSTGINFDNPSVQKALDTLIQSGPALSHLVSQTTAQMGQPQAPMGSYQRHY

FUBP1 (HepG2 lysate) = biological target: T4, FUBP1 (HepG2 lysate) (UniProt Q96AE4); test: pull-down, immunoblot; conditions: Pull-down: HepG2 lysate (50 mM Tris pH 7.5, 100 mM NaCl, 1% NP-40, 0.5% deoxycholate) + tRNA 50 ug/ml, RT 30 min then 4 C 90 min, washes 10 mM Tris pH 7.5, 150 mM KCl, protein in an extract
T4 sequence (looked up, limits assumed): T1 sequence (looked up, limits assumed)

AAUGCUUUACUUUCUGUGUUGAAG [Ctrl-1 (FAM)]
112 nM: Kd (FUBP1-strep)

AAUGCUUUACUUUCUGUGUUGAAG [Ctrl-1 (biotin)]
binds more weakly: binding result (FMRP) | binding result (FUBP3) | binding result (IGF2BP1) | binding result (IGF2BP3) | binding result (NCOA5)

AAUGCUUUACUUUCUGUGUUGAAG [Gm-1 (FAM)]
85 nM: Kd (FUBP1-strep; 2'-O-methyl G16)

AAUGCUUUACUUUCUGUGUUGAAG [Gm-1 (biotin)]
binds: binding result (FMRP; 2'-O-methyl G16) | binding result (FUBP1 (HepG2 lysate); 2'-O-methyl G16) | binding result (FUBP3; 2'-O-methyl G16) | binding result (IGF2BP1; 2'-O-methyl G16) | binding result (IGF2BP3; 2'-O-methyl G16) | binding result (NCOA5; 2'-O-methyl G16)

ACUGAACGCCUUUAAGUCAGAAUCCCACCC [SEC14L1 control]
binds more weakly: binding result (FUBP1-strep)

UGAAAGCUGGAUACCUAAUGUCAG [Am-2 (FAM)]
110 nM: Kd (FUBP1-strep; 2'-O-methyl A13)

UGAAAGCUGGAUACCUAAUGUCAG [Am-2 (biotin)]
binds: binding result (FMRP; 2'-O-methyl A13) | binding result (FUBP1 (HepG2 lysate); 2'-O-methyl A13) | binding result (FUBP3; 2'-O-methyl A13) | binding result (IGF2BP1; 2'-O-methyl A13) | binding result (IGF2BP3; 2'-O-methyl A13) | binding result (NCOA5; 2'-O-methyl A13)

UGAAAGCUGGAUACCUAAUGUCAG [Ctrl-2 (FAM)]
126 nM: Kd (FUBP1-strep)

UGAAAGCUGGAUACCUAAUGUCAG [Ctrl-2 (biotin)]
binds more weakly: binding result (FMRP) | binding result (FUBP3) | binding result (IGF2BP1) | binding result (IGF2BP3) | binding result (NCOA5)
